The values that follow come from article PMC2662410.

Results are given in words; binding and its absence hold for the method and conditions named. In cells and extracts the contact can be indirect. Some entries that bind do so weakly or less than the wild type.

The target of this experiment is T1, Fas/CD95 death receptor (human (endogenous in Jurkat)), P25445.
T1 chain: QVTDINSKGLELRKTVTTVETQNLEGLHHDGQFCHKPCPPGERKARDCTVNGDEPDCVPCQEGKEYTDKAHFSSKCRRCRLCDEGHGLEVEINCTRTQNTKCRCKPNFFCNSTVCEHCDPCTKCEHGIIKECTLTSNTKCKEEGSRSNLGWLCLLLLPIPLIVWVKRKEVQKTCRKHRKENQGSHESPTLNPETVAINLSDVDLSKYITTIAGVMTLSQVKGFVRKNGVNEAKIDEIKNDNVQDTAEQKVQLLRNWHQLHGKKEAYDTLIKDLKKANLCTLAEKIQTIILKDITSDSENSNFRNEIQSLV
Put plainly: co-IP; Fas/CD95 immunoprecipitated with anti-Fas/CD95 (C-20) on protein A-Sepharose from the raft fraction (fractions 3-5) of Jurkat cells treated with 10 µM edelfosine for 9 h; lysis buffer 20 mM Tris-HCl pH 7.5, 100 mM KCl, 0.9% Triton X-100, 10% glycerol; blotted for FADD and procaspase-8. The note with it: remark: other sources report otherwise.

B1: Fas-associated death domain-containing protein (FADD), Q13158 1-208 (protein)
chain: MDPFLVLLHSVSSSLSSSELTELKFLCLGRVGKRKLERVQSGLDLFSMLLEQNDLEPGHTELLRELLASLRRHDLLRRVDDFEAGAAAGAAPGEEDLCAAFNVICDNVGKDWRRLARQLKVSDTKIDSIEDRYPRNLTERVRESLRIWKNTEKENATVAHLVGALRSCQMNLVADLVQEVQQARDLQNRSGAMSPMSWNSDASTSEAS
With B1, the binding result is listed as “binds”.

B2: procaspase-8, Q14790 1-479 (enzyme)
chain: MDFSRNLYDIGEQLDSEDLASLKFLSLDYIPQRKQEPIKDALMLFQRLQEKRMLEESNLSFLKELLFRINRLDLLITYLNTRKEEMERELQTPGRAQISAYRVMLYQISEEVSRSELRSFKFLLQEEISKCKLDDDMNLLDIFIEMEKRVILGEGKLDILKRVCAQINKSLLKIINDYEEFSKERSSSLEGSPDEFSNGEELCGVMTISDSPREQDSESQTLDKVYQMKSKPRGYCLIINNHNFAKAREKVPKLHSIRDRNGTHLDAGALTTTFEELHFEIKPHDDCTVEQIYEILKIYQLMDHSNMDCFICCILSHGDKGIIYGTDGQEAPIYELTSQFTGLKCPSLAGKPKVFFIQACQGDNYQKGIPVETDSEEQPYLEMDLSSPQTRYIPDEADFLLGMATVNNCVSYRNPAEGTWYIQSLCQSLRERCPRGDDILTILTEVNYEVSNKDDKKNMGKQMPQPTFTLRKKLVFPSD
For the molecule B2, the binding result is given as “binds”.
